Data published in publication doi:10.1101/792705.
Results are given in words; binding and its absence hold for the method and conditions named. Binding seen in cells or lysates may run through a third protein. Some results given as binding are weak or reduced against the parent protein; the word gives no strength. One block for each binder: values may come before it.

Amino acid sequences for entries named in this document (tags omitted).
UniProt P22366: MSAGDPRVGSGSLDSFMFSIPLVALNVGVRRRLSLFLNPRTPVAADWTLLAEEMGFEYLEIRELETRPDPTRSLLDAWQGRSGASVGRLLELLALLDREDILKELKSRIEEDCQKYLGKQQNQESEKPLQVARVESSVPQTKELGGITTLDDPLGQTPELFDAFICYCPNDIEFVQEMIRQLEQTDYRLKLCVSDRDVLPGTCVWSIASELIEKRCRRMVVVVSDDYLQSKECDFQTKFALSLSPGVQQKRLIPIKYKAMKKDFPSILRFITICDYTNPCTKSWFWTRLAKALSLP

Target: MyD88 (mouse (endogenous in BMDM)) (UniProt P22366)
Test: co-IP

binding: binds
B1: IRAK-4 (enzyme, UniProt Q8R4K2 1-459)
chain: MNKPLTPSTYIRNLNVGILRKLSDFIDPQEGWKKLAVAIKKPSGDDRYNQFHIRRFEALLQTGKSPTCELLFDWGTTNCTVGDLVDLLVQIELFAPATLLLPDAVPQTVKSLPPREAATVAQTHGPCQEKDRTSVMPMPKLEHSCEPPDSSSPDNRSVESSDTRFHSFSFHELKSITNNFDEQPASAGGNRMGEGGFGVVYKGCVNNTIVAVKKLGAMVEISTEELKQQFDQEIKVMATCQHENLVELLGFSSDSDNLCLVYAYMPNGSLLDRLSCLDGTPPLSWHTRCKVAQGTANGIRFLHENHHIHRDIKSANILLDKDFTAKISDFGLARASARLAQTVMTSRIVGTTAYMAPEALRGEITPKSDIYSFGVVLLELITGLAAVDENREPQLLLDIKEEIEDEEKTIEDYTDEKMSDADPASVEAMYSAASQCLHEKKNRRPDIAKVQQLLQEMSA

binding: no binding
B2: TLR6 (receptor, UniProt Q9EPW9 28-795)
chain: FSNELESMVDYSNRNLTHVPKDLPPRTKALSLSQNSISELRMPDISFLSELRVLRLSHNRIRSLDFHVFLFNQDLEYLDVSHNRLQNISCCPMASLRHLDLSFNDFDVLPVCKEFGNLTKLTFLGLSAAKFRQLDLLPVAHLHLSCILLDLVSYHIKGGETESLQIPNTTVLHLVFHPNSLFSVQVNMSVNALGHLQLSNIKLNDENCQRLMTFLSELTRGPTLLNVTLQHIETTWKCSVKLFQFFWPRPVEYLNIYNLTITERIDREEFTYSETALKSLMIEHVKNQVFLFSKEALYSVFAEMNIKMLSISDTPFIHMVCPPSPSSFTFLNFTQNVFTDSVFQGCSTLKRLQTLILQRNGLKNFFKVALMTKNMSSLETLDVSLNSLNSHAYDRTCAWAESILVLNLSSNMLTGSVFRCLPPKVKVLDLHNNRIMSIPKDVTHLQALQELNVASNSLTDLPGCGAFSSLSVLVIDHNSVSHPSEDFFQSCQNIRSLTAGNNPFQCTCELRDFVKNIGWVAREVVEGWPDSYRCDYPESSKGTALRDFHMSPLSCDTVLLTVTIGATMLVLAVTGAFLCLYFDLPWYVRMLCQWTQTRHRARHIPLEELQRNLQFHAFVSYSEHDSAWVKNELLPNLEKDDIRVCLHERNFVPGKSIVENIINFIEKSYKAIFVLSPHFIQSEWCHYELYFAHHNLFHEGSDNLILILLEPILQNNIPSRYHKLRALMAQRTYLEWPTEKGKRGLFWANLRASFIMKLALVNEDDVKT
